Patent publication US20220340682A1 (Sanofi, published 2022)
No constants are given. Whether binding was seen depends on the method and setting. Some binding calls cover weakened binding; strength is not graded here.

Tests used:
[1] = biological target: T1, cCEACAM5 A3B3, M. fascicularis CEACAM5 A3-B3 domain (499-688) (Macaca fascicularis); assay: ELISA on coated recombinant domains
T1 sequence: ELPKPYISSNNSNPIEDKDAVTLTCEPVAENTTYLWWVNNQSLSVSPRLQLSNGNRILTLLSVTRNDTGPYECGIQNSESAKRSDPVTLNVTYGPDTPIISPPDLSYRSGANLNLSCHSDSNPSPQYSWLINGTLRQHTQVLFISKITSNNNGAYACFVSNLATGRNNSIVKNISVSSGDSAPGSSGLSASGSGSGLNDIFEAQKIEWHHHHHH

[2] = biological target: T1, cCEACAM5 A3B3, M. fascicularis CEACAM5 A3-B3 domain (499-688) (Macaca fascicularis); assay: ELISA on coated recombinant CEACAM5 protein or domain, anti-mouse IgG-HRP, OD 450 nm
[3] = biological target: cCEACAM5, M. fascicularis CEACAM5 ECD (35-688) (Macaca fascicularis); assay: as above
[4] = biological target: cCEACAM5, M. fascicularis CEACAM5 ECD (35-688) (Macaca fascicularis); assay: immunohistochemistry on FFPE pellets of transfected HEK293 cells

Measured: binding

B1: antibody MAb2 (antibody, mouse IgG1, V domains shown)
VH: EVQLQESGGVLVKPGGSLKLSCAASGFVFSSYDMSWVRQTPEKRLEWVAYISSGGGITYFPDTVQGRFTVSRDNAKNTLYLQMNSLKSEDTAIYYCAAHYFGSSGPFAYWGQGTLVTVSA
VL: DIQMTQSPASLSASVGETVTITCRASENIFSYLAWYQQKQGKSPQLLVYNTKTLAEGVPSRFSGSGSGTQFSLKINSLQPEDFGSYYCQHHYGTPFTFGSGTKLEIK
notes: Murine IgG1, kappa; Rows are tied to the label as printed
binds: [1] | [2] | [3] | [4]
